Laboratory results: PubChem BioAssay AID1224830 (NIAID, 2016)
Here is one part, drawn at random, of about 18,000 reagents. Of all reagents, about 2,900 (16%) are marked active. 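Calls are made per well; low scores hint the gene aids the LPS response, high scores that it dampens it.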 Repeated entries: four replicate wells of each siRNA pool.

- Test: 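Genes whose knock-down alters the TNF-alpha reporter response to LPS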 (primary screen)
- System: human THP-1 monocytic leukaemia cells, TNF dual-luciferase reporter clone, PMA-differentiated to macrophage-like cells
- Reagent: siRNA pool against human genes, 50 nM
- Duration: LPS for 4 h, given about 3 days after siRNA transfection
- Challenge: bacterial LPS (TLR4 ligand), 10 ng/ml
- Measured: 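TNF firefly reporter luminescence divided by renilla, normalised to the plate median, then turned into a robust z-score for each replicate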
- Reading the numbers: TNF reporter robust z-score: higher = stronger TNF reporter response to LPS
- Call rule: 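Each well counts as active if its z-score is over 2.8 or under -1.5; controls are left without a call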

no.	gene	TNF reporter robust z-score	Outcome
1	TSPAN3 (tetraspanin 3)	0.6	inactive
2	TSPAN3 (tetraspanin 3)	1.58	inactive
3	TSPAN3 (tetraspanin 3)	0.15	inactive
4	TSPAN3 (tetraspanin 3)	1.41	inactive
5	MCM2 (minichromosome maintenance complex component 2)	0.12	inactive
6	MCM2 (minichromosome maintenance complex component 2)	-0.28	inactive
7	MCM2 (minichromosome maintenance complex component 2)	0.13	inactive
8	MCM2 (minichromosome maintenance complex component 2)	1.41	inactive
9	C2orf66 (chromosome 2 open reading frame 66)	0.16	inactive
10	C2orf66 (chromosome 2 open reading frame 66)	-0.41	inactive
11	C2orf66 (chromosome 2 open reading frame 66)	-1.03	inactive
12	C2orf66 (chromosome 2 open reading frame 66)	-0.26	inactive
13	ZNF646 (zinc finger protein 646)	-0.36	inactive
14	ZNF646 (zinc finger protein 646)	-0.11	inactive
15	ZNF646 (zinc finger protein 646)	-0.51	inactive
16	ZNF646 (zinc finger protein 646)	0.14	inactive
17	PBX4 (PBX homeobox 4)	-1.33	inactive
18	PBX4 (PBX homeobox 4)	-0.81	inactive
19	PBX4 (PBX homeobox 4)	-0.9	inactive
20	PBX4 (PBX homeobox 4)	-0.95	inactive
21	NCKAP5L (NCK associated protein 5 like)	0.49	inactive
22	NCKAP5L (NCK associated protein 5 like)	1.75	inactive
23	NCKAP5L (NCK associated protein 5 like)	0.25	inactive
24	NCKAP5L (NCK associated protein 5 like)	1.7	inactive
25	MAGEA5P (MAGE family member A5, pseudogene)	2.37	inactive
26	MAGEA5P (MAGE family member A5, pseudogene)	-0.22	inactive
27	MAGEA5P (MAGE family member A5, pseudogene)	2.03	inactive
28	MAGEA5P (MAGE family member A5, pseudogene)	2.17	inactive
29	LARS1 (leucyl-tRNA synthetase 1)	-0.53	inactive
30	LARS1 (leucyl-tRNA synthetase 1)	-0.03	inactive
31	LARS1 (leucyl-tRNA synthetase 1)	0.1	inactive
32	LARS1 (leucyl-tRNA synthetase 1)	-0.41	inactive
33	SCGB1D4 (secretoglobin family 1D member 4)	1.59	inactive
34	SCGB1D4 (secretoglobin family 1D member 4)	2	inactive
35	SCGB1D4 (secretoglobin family 1D member 4)	0.79	inactive
36	SCGB1D4 (secretoglobin family 1D member 4)	1.66	inactive
37	DCAF6 (DDB1 and CUL4 associated factor 6)	1.22	inactive
38	DCAF6 (DDB1 and CUL4 associated factor 6)	-0.47	inactive
39	DCAF6 (DDB1 and CUL4 associated factor 6)	-0.34	inactive
40	DCAF6 (DDB1 and CUL4 associated factor 6)	0.87	inactive
41	TMEM127 (transmembrane protein 127)	0.2	inactive
42	TMEM127 (transmembrane protein 127)	1.85	inactive
43	TMEM127 (transmembrane protein 127)	0.11	inactive
44	TMEM127 (transmembrane protein 127)	0.3	inactive
45	OR51B5 (olfactory receptor family 51 subfamily B member 5)	0.32	inactive
46	OR51B5 (olfactory receptor family 51 subfamily B member 5)	-1.07	inactive
47	OR51B5 (olfactory receptor family 51 subfamily B member 5)	-0.63	inactive
48	OR51B5 (olfactory receptor family 51 subfamily B member 5)	-1.04	inactive
49	OR4F4 (olfactory receptor family 4 subfamily F member 4)	1.91	inactive
50	OR4F4 (olfactory receptor family 4 subfamily F member 4)	-0.39	inactive
51	OR4F4 (olfactory receptor family 4 subfamily F member 4)	1.3	inactive
52	OR4F4 (olfactory receptor family 4 subfamily F member 4)	0.36	inactive
53	MBTPS2 (membrane bound transcription factor peptidase, site 2)	-0.11	inactive
54	MBTPS2 (membrane bound transcription factor peptidase, site 2)	0.46	inactive
55	MBTPS2 (membrane bound transcription factor peptidase, site 2)	-0.07	inactive
56	MBTPS2 (membrane bound transcription factor peptidase, site 2)	2	inactive
57	ISY1 (ISY1 spliceosome associated protein)	0.65	inactive
58	ISY1 (ISY1 spliceosome associated protein)	0.08	inactive
59	ISY1 (ISY1 spliceosome associated protein)	-0.89	inactive
60	ISY1 (ISY1 spliceosome associated protein)	0.88	inactive
61	DQX1 (DEAQ-box RNA dependent ATPase 1)	0.73	inactive
62	DQX1 (DEAQ-box RNA dependent ATPase 1)	1.73	inactive
63	DQX1 (DEAQ-box RNA dependent ATPase 1)	0.42	inactive
64	DQX1 (DEAQ-box RNA dependent ATPase 1)	0.39	inactive
65	SP8 (Sp8 transcription factor)	0.64	inactive
66	SP8 (Sp8 transcription factor)	1.04	inactive
67	SP8 (Sp8 transcription factor)	0.94	inactive
68	SP8 (Sp8 transcription factor)	0.13	inactive
69	SEMA4B (semaphorin 4B)	-0.16	inactive
70	SEMA4B (semaphorin 4B)	0.91	inactive
71	SEMA4B (semaphorin 4B)	0.39	inactive
72	SEMA4B (semaphorin 4B)	-0.53	inactive
73	CEP135 (centrosomal protein 135)	1.18	inactive
74	CEP135 (centrosomal protein 135)	4.86	active
75	CEP135 (centrosomal protein 135)	5.04	active
76	CEP135 (centrosomal protein 135)	0.93	inactive
77	ANO4 (anoctamin 4)	1.18	inactive
78	ANO4 (anoctamin 4)	1.16	inactive
79	ANO4 (anoctamin 4)	-1.12	inactive
80	ANO4 (anoctamin 4)	-0.81	inactive
81	TFEB (transcription factor EB)	1.62	inactive
82	TFEB (transcription factor EB)	4.06	active
83	TFEB (transcription factor EB)	3.35	active
84	TFEB (transcription factor EB)	1.98	inactive
85	TFF1 (trefoil factor 1)	-0.54	inactive
86	TFF1 (trefoil factor 1)	3.41	active
87	TFF1 (trefoil factor 1)	-0.17	inactive
88	TFF1 (trefoil factor 1)	1.61	inactive
89	USP16 (ubiquitin specific peptidase 16)	-0.19	inactive
90	USP16 (ubiquitin specific peptidase 16)	1.09	inactive
91	USP16 (ubiquitin specific peptidase 16)	-0.06	inactive
92	USP16 (ubiquitin specific peptidase 16)	-0.03	inactive
93	RALBP1 (ralA binding protein 1)	-0.21	inactive
94	RALBP1 (ralA binding protein 1)	-0.1	inactive
95	RALBP1 (ralA binding protein 1)	-0.49	inactive
96	RALBP1 (ralA binding protein 1)	0.22	inactive
97	EFNA2 (ephrin A2)	-2.06	active
98	EFNA2 (ephrin A2)	-1	inactive
99	EFNA2 (ephrin A2)	-1.37	inactive
100	EFNA2 (ephrin A2)	-0.91	inactive
101	PKN3 (protein kinase N3)	-0.16	inactive
102	PKN3 (protein kinase N3)	0.82	inactive
103	PKN3 (protein kinase N3)	0.11	inactive
104	PKN3 (protein kinase N3)	0.62	inactive
105	SEC14L4 (SEC14 like lipid binding 4)	1.68	inactive
106	SEC14L4 (SEC14 like lipid binding 4)	2.21	inactive
107	SEC14L4 (SEC14 like lipid binding 4)	3.16	active
108	SEC14L4 (SEC14 like lipid binding 4)	1.62	inactive
109	HLA-E (major histocompatibility complex, class I, E)		inactive
110	HLA-E (major histocompatibility complex, class I, E)	1.69	inactive
111	HLA-E (major histocompatibility complex, class I, E)	1.54	inactive
112	HLA-E (major histocompatibility complex, class I, E)	1.14	inactive
113	HLA-E (major histocompatibility complex, class I, E)	1.6	inactive
